Data as given in paper doi:10.1101/2025.02.20.639281.
Results are given in words; binding and its absence hold for the method and conditions named. In cells and extracts the contact can be indirect. Tags and fused reporters may be left off the sequences shown.

Target: T1, Lte1^mREM-ProA (S. cerevisiae) (UniProt P07866)
T1 sequence: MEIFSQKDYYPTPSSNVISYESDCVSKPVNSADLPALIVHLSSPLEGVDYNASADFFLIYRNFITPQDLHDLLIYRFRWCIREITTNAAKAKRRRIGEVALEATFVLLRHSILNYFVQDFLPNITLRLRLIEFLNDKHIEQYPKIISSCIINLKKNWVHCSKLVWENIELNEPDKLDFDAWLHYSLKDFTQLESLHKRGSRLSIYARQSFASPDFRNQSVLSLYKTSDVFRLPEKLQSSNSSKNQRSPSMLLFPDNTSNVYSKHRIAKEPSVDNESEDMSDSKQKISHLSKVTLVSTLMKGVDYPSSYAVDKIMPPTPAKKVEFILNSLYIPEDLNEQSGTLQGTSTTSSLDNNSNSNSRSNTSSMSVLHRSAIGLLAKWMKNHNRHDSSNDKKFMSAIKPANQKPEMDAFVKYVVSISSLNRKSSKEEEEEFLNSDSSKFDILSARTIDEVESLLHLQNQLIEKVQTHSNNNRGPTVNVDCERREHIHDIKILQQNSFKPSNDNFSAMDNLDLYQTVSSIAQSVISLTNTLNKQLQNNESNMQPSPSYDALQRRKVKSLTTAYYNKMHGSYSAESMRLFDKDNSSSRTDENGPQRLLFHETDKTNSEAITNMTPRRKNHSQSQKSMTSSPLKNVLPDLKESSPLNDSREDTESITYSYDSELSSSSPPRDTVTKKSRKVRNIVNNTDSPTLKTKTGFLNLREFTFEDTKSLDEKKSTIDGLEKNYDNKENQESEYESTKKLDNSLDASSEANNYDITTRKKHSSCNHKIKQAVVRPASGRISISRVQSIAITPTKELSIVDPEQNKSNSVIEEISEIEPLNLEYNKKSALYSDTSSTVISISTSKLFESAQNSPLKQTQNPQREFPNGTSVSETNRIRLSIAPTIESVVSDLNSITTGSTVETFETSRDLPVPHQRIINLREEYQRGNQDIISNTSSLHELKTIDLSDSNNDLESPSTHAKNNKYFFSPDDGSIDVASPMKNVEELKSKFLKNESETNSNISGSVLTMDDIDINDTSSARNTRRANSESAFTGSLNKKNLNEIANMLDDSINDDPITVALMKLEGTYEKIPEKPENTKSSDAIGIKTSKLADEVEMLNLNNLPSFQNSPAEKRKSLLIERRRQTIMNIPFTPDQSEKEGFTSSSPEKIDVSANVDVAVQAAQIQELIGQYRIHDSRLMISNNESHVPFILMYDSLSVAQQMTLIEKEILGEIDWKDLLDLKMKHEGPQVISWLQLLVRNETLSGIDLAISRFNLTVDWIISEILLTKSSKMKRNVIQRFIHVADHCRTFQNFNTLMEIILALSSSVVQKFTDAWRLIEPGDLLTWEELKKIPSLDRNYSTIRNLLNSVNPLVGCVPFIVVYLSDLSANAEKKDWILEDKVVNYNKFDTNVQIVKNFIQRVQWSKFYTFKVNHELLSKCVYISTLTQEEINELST
Assay: co-IP

B1: His6-Ras2 (protein, UniProt P01120 1-322)
chain: MPLNKSNIREYKLVVVGGGGVGKSALTIQLTQSHFVDEYDPTIEDSYRKQVVIDDEVSILDILDTAGQEEYSAMREQYMRNGEGFLLVYSITSKSSLDELMTYYQQILRVKDTDYVPIVVVGNKSDLENEKQVSYQDGLNMAKQMNAPFLETSAKQAINVEEAFYTLARLVRDEGGKYNKTLTENDNSKQTSQDTKGSGANSVPRNSGGHRKMSNAANGKNVNSSTTVVNARNASIESKTGLAGNQATNGKTQTDRTNIDNSTGQAGQANAQSANTVNNRVNNNSKAGQVSNAKQARKQQAAPGGNTSEASKSGSGGCCIIS
B1 was tested. Which binding did it give?
Its binding is “no binding”.
